Laboratory results published in publication PMC9136141.
Results are given in words; binding and its absence hold for the method and conditions named. In cells and extracts the contact can be indirect. Some binding calls cover weakened binding; strength is not graded here.

Molecular target: Smad3 (human (endogenous in CCD-18Co)), P84022
Assay: co-IP; CCD-18Co cells treated with 0.1 or 0.5 mM metformin and/or 2 ng/ml TGF-β1 for 48 h; soluble lysates in CO-IP buffer incubated with anti-Smad3 antibody overnight at 4°C, Protein A or G beads 4 h; TβRI detected by western blot
Settings: remark: other sources report otherwise

B1: Transforming growth factor-beta receptor I, P36897 34-503 (receptor)
chain: LQCFCHLCTKDNFTCVTDGLCFVSVTETTDKVIHNSMCIAEIDLIPRDRPFVCAPSSKTGSVTTTYCCNQDHCNKIELPTTVKSSPGLGPVELAAVIAGPVCFVCISLMLMVYICHNRTVIHHRVPNEEDPSLDRPFISEGTTLKDLIYDMTTSGSGSGLPLLVQRTIARTIVLQESIGKGRFGEVWRGKWRGEEVAVKIFSSREERSWFREAEIYQTVMLRHENILGFIAADNKDNGTWTQLWLVSDYHEHGSLFDYLNRYTVTVEGMIKLALSTASGLAHLHMEIVGTQGKPAIAHRDLKSKNILVKKNGTCCIADLGLAVRHDSATDTIDIAPNHRVGTKRYMAPEVLDDSINMKHFESFKRADIYAMGLVFWEIARRCSIGGIHEDYQLPYYDLVPSDPSVEEMRKVVCEQKLRPNIPNRWQSCEALRVMAKIMRECWYANGAARLTALRIKKTLSQLSQQEGIKM
- binding: binds
